This is an account of results in publication PMC7819943, “Rice protein-binding microarrays: a tool to detect cis-acting elements near promoter regions in rice”.

Chains of the proteins cited; added tags and fusions are not shown.
UniProt Q0JBA9, entry or part of it: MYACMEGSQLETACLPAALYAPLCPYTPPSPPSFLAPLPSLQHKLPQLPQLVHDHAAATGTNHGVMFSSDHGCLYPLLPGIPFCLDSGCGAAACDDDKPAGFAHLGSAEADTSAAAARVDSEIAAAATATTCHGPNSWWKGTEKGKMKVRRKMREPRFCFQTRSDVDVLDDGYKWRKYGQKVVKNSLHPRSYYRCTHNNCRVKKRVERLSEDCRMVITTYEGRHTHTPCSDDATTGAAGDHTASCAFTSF

This is one part of the list.

This test addresses OsWRKY34 (Oryza sativa, UniProt Q0JBA9 1-250). The test can be described thus: protein-binding microarray (RPBM); PBS, 2% BSA, 51.3 ng/ul salmon testes DNA, 50 uM zinc acetate, 200 nM TF, 25 C, 1 h; high values mean tight binding. Particulars: protein: recombinant; tags: N-terminal polyhistidine and DsRed monomer fusion (pET32a); label: CyDye5-dUTP incorporated in the synthesized complementary strand; 3' TTTTT single-stranded linker to array surface; dsDNA, one strand shown. The method, boiled down:
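A custom Agilent array was converted to double-stranded form by primer extension with Cy5-dUTP and blocked with 2% BSA. Protein at 200 nM in PBS with 2% BSA, salmon testes DNA and 50 µM zinc acetate was applied for 1 h at 25 °C, followed by washing. The proteins were polyhistidine–DsRed N-terminal fusions of transcription factors, expressed in E. coli BL21-CodonPlus and Ni–NTA-purified. The binding signal is per-feature fluorescence intensity (arbitrary units) from an Axon 4000B scanner.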
As for “TTCTCGTCATCTTGGTCTGCTCCTACGTCTCCGCCCATGTCGGAGTCACCTAGTGCAG”, the binding signal was 8800 fluorescence intensity (a.u.). The same measure for “TCTTTTTTTAGTCAATTCCATATTTTGTACTGATTAAATTCGGAGTCACCTAGTGCAG”: 10100 fluorescence intensity (a.u.); for “CTGAGCAAATTCATGGTGGGAAAAGGGGTTTTCATGTAATCGGAGTCACCTAGTGCAG”: 10700 fluorescence intensity (a.u.); for “AGCATGTGTAGAGGGAGTTGTCGTTTTCTGAGGAGCAAGACGGAGTCACCTAGTGCAG”: 8660 fluorescence intensity (a.u.).

Consider “CCATCGGAGCACCGGCGCCCCTTCTCTCTTTCTCTCTGCTCGGAGTCACCTAGTGCAG”, for which the binding signal is 8820 fluorescence intensity (a.u.). In the case of “TGGTTGTTTTTTTCTTGTGCTCCCTGTATTGGATATGCTACGGAGTCACCTAGTGCAG”, the binding signal was 8090 fluorescence intensity (a.u.). With “AGCTCACTAACCTGCTCTTTCCTGGTCCTGGAGGTCTTTGCGGAGTCACCTAGTGCAG”, the binding signal was 8870 fluorescence intensity (a.u.). As for “CGTGCGACGCCACTGCTCACTTTGTCTCGACCACTGTCCGCGGAGTCACCTAGTGCAG”, the binding signal is 9320 fluorescence intensity (a.u.).

On to “CCCTTCACAGTTCCTTTGCCTGTCCCCGGTAATGGTCTTTCGGAGTCACCTAGTGCAG”, for which the binding signal was 9040 fluorescence intensity (a.u.). Turning to “TTATACCTTCTTTCTTTGTAAGCTACCGTGTCGATCTTTTCGGAGTCACCTAGTGCAG”, the binding signal was 8400 fluorescence intensity (a.u.).

On to “TCTTTCCTGCGTACTATATCACATATTCGAGGCTCGAAACCGGAGTCACCTAGTGCAG”, for which the binding signal was 8590 fluorescence intensity (a.u.). With “CACCAACTAATTTCATTGGAATTTTGTGGGAGGTGGAGGGCGGAGTCACCTAGTGCAG” the figure was 9220 fluorescence intensity (a.u.).

Turning to “CGGTTCGCTTCCCTTTCTCGTCAGAAGGCTCACTCCGTCTCGGAGTCACCTAGTGCAG”, the binding signal was 8360 fluorescence intensity (a.u.). Consider “ATATACCGTACCCCATCGCCATCGATCGGTGTCATTCATTCGGAGTCACCTAGTGCAG”, for which the binding signal was 8040 fluorescence intensity (a.u.).

In the case of “CAATGTACCATACTCATCTTTTTCGTTTATGCTTATACCTCGGAGTCACCTAGTGCAG”, the binding signal was 9500 fluorescence intensity (a.u.). As for “CTCCCGCCGCATTTGCATCCTAATCCATCCCATCTGGCCTCGGAGTCACCTAGTGCAG”, the binding signal was 10600 fluorescence intensity (a.u.).

For the sequence “TACTTTTCCAACCCAACCTCAAACACAACCAATCCACCTCCGGAGTCACCTAGTGCAG”, the binding signal was 8080 fluorescence intensity (a.u.). For the sequence “ATGGCGACTTTGGATTCTCCAGCCTCTTGTGTTTGCCTTTCGGAGTCACCTAGTGCAG”, the binding signal was 9480 fluorescence intensity (a.u.). Regarding “GAGCGTGGGGCGGAGATTTTCGACTCGTCTTCCGTTACGGCGGAGTCACCTAGTGCAG”, the binding signal was 8930 fluorescence intensity (a.u.). With “CTCAACATATTTCCTCCAATGTTCCTGCCTGTGGCTCACTCGGAGTCACCTAGTGCAG” the figure was 8640 fluorescence intensity (a.u.); with “CATCACTCCTACCTCGTGTCTCTGACACCCTGACCACACGCGGAGTCACCTAGTGCAG”, 9400 fluorescence intensity (a.u.); with “GGCGGCGGCGGCGACTCGGCTCTCGCTTCCACGCATCCATCGGAGTCACCTAGTGCAG”, 9160 fluorescence intensity (a.u.). The same measure for “AGTCCATTTTTCAGTAGTCCTCATGGCTTGTAGGTTTTCACGGAGTCACCTAGTGCAG”: 9510 fluorescence intensity (a.u.).
